Laboratory results published in paper PMC9647036.
These are yes or no findings as the source states them, for the method shown.

Amino acid sequences for entries named in this document (tags omitted). Residues count along the entry.
UniProt O97302, residues 720-934: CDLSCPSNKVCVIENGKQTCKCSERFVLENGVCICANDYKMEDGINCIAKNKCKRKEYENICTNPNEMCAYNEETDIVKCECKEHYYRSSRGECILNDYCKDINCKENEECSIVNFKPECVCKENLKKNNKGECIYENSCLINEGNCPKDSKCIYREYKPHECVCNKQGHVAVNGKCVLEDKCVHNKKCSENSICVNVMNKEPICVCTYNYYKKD

Biological target: PfRipr5 (protein fragment of PfRipr, aa C720-D934) (Plasmodium falciparum) (UniProt O97302)
Test: SEC + other: dynamic light scattering; HPLC-SEC on XBridge BEH 125 Å column, 16 mM sodium phosphate, 250 mM NaCl, pH 8.0, 20 micrograms injected; DLS on Spectro Light 600; both purified

binding: no binding
Substance: PfRipr5 (protein fragment of PfRipr, aa C720-D934) (from UniProt O97302 720-934) (domain or fragment)
